Reference: PubChem BioAssay AID1508600 (Functional Genomics Laboratory (NCATS/FGL), 2020)
Out of some 53,000 sequences screened, about 3,700 (7%) were called active.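 Rule for the calls: active = gene knockdowns whose robust z-score for IL-1 alpha signal is at least 2 or at most -2, so actives lie on both sides; inactive = the rest.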 This is one part of the list.

Assay: Components of the Cytosolic LPS Sensing Pathway: Gene Identification via Genome-wide siRNA Screen;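 note: robust z of the log signal after scaling to non-targeting control siRNA wells of the plate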
Conditions: RAW264.7 macrophages, IL-1a HTRF, actives lie on both sides, screened at 100 nM (by protocol), cells primed 5 h with Pam3CSK4 first
How it was run: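 Using IL-1a HTRF as read-out, the screen measured release from RAW264.7 cells after 48h siRNA knockdown (100 nM), 5 h Pam3CSK4 priming and 24 h cytosolic LipidA. Values were expressed relative to negative-control wells as robust z-scores.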

Sequence	z-score
GAGCCACUUUCUCAAGUGUTT against Pou3f1	active: 3.02
GGUGAACUGUCAUAACUGGTT against Synj2	inactive: 1.48
CGAACAGAUGCUUAAUGUCTT against Tubb4b	inactive: 1.28
GCCCGCAUUUUGGAAACUCTT against Lmbr1	inactive: -0.462
UUUCGAGCUGAUCCAUGAGTT against Tbata	inactive: 1.19
GGCUGAACUUCUUUCCAAGTT against Cd209b	inactive: 1.41
GGACAUUUGACACACAACATT against Scyl3	inactive: -0.959
GCCCUGCUUCAUAUGGAAUTT against Elf2	inactive: 0.963
CCACAACAACAGGAGUACUTT against Nedd4l	inactive: 0.695
GGUUCCUUAAUUUAUUGCCTT against Fbxl22	active: 2.31
GGAAAGGAAAUCAAGGAUUTT against Gngt2	inactive: -1
GGAGUUUUACGGACUGCUGTT against Pard6b	inactive: 0.984
GGGCAUGCAAUGUUCAUGCTT against Rho	inactive: 0.095
GCCUUGCCCUUGUGUUUCUTT against Tomm6	inactive: 0.0921
GACCACCUGCUAAUGGGAGTT against Prp15	inactive: 0.145
GGCUUUGCUUUCCUUACUUTT against Rbmy	inactive: -0.326
GGGAUCCUCUUGACAUUCCTT against Epdr1	active: 3.87
GGUACUUUUCUCACUUCUATT against Srd5a3	inactive: -0.972
GGAGACGAGAAACAAACCCTT against Diaph2	inactive: 1.68
GGAGAAUGUGCCUACUUGATT against Clec2e	inactive: -0.97
GCGGAUAAGAUUGAUGUAGTT against Degs1	inactive: -0.592
GGACAGAAAAUGUGAAAAGTT against Mdfi	inactive: -1.14
CCACAUUGGAACAAAGAGUTT against Lctl	inactive: -0.558
GCACAAAUCGAAUUGGCAUTT against Tgm3	inactive: 0.421
CCAGAAUGCUAGACACUGCTT against Clec4b2	inactive: 0.0683
GGUCCUUCCUCAGAUCCCUTT against Amdhd2	inactive: -1.13
GGAAAUUCAAAAAGUGUGUTT against Aplf	active: -2.25
CGUAUUGGAAAGACUGCUUTT against Poldip3	inactive: 1.48
GGGCUCACUCUGUCUCUACTT against Rpp25l	inactive: -0.378
GGCUGUUUUCUGUGCUACATT against Olfr298	inactive: 0.304

Reprinted at random: two entries already listed
Sequence	z-score
GGCUGUUUUCUGUGCUACATT against Olfr298	inactive: 0.304
GGUCCUUCCUCAGAUCCCUTT against Amdhd2	inactive: -1.13
